Assay in all cases: EMSA
For orientation: In EMSA bound probe runs differently from free probe, usually more slowly.

Data set [1] relates to T1, SEBF (400 mM Q-Sepharose fraction) (Solanum tuberosum).
T1 sequence: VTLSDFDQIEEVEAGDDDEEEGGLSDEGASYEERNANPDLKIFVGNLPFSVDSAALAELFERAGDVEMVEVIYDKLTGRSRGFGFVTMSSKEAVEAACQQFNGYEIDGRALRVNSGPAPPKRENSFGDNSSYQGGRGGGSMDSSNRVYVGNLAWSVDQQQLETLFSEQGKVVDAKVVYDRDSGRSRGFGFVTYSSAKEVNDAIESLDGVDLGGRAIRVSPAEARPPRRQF
The conditions noted are these: protein in an extract, label: 32P, single-stranded DNA.

In data set [2] the test system is T2, SEBF (native, crude nuclear extract) (Solanum tuberosum).
T2 sequence: T1 sequence
The conditions noted are these: protein in an extract.

The subject of data set [3] is T3, SEBF (recombinant) (Solanum tuberosum).
T3 sequence (limits assumed): T1 sequence
Conditions: purified recombinant protein, label: 32P, single-stranded DNA, variant of PR-10a SE coding strand WT.

The mark [4] stands for this setting: mutation outside site, not affected, label: 32P, single-stranded DNA, variant of SE WT (fine mapping).
[5] abbreviates: significantly reduced, label: 32P, single-stranded DNA, variant of PR-10a SE coding strand WT.
Setting [6] is: specificity stated similar to native SEBF.
The mark [7] stands for this setting: dramatically reduced, label: 32P, single-stranded DNA, variant of SE WT (fine mapping).

For some of these results: Weaker means in comparison with the reference protein, sequence or condition of that experiment. Protein sequences can lack the tags named with them. For some of these results: Results from cells or extracts need not show a direct contact. For some of these results: A negative result means that nothing was seen under these conditions.

The results in this text go back to patent US20050055741, “Plant transcriptional repressor, proteic nuclear factors binding thereto, and uses thereof” (published 2005).

With “AACATCTGCTTTGTCACCCTCCTTG [ChtC2 chitinase oligo]”, the binding result in data set [1] is on record as “binds”.
With “ATTAAGCCATGTCTCCATCATCTTC [CHN50 chitinase oligo]”, the binding result in data set [1] is on record as “binds”.
Consider CATGGACTGTCACTTGTTTTTTTTA [SE m2], for which, in data set [2] (slight increase vs WT, label: 32P, single-stranded DNA, variant of PR-10a SE coding strand WT), the binding result was “binds”.
TAAGCCATATCTCCATCATCT [CHN50 M2]: the binding result in data set [1] (M2 abolishes binding, variant of CHN50 WT (FIG. 12)) was “no binding”.
Regarding “TAAGCCATGTCTCCATCATCT [CHN50 WT (FIG. 12)]”, in data set [1], the binding result is given as “binds”.
For the sequence TCGCGACTGTCACTTGTTTTTTTT [SE m6], in data set [2] (setting [4]), the binding result is given as “binds”.
In the case of TCTAGAAGATCACTTGTTTTTTTTA [SE m3], the binding result in data set [2] (setting [5]) and in data set [3] (setting [6]) was “binds more weakly” each time.
TCTAGAAGGTCACTTGTTTTTTTT [SE m8]: the binding result in data set [2] (setting [7]) is listed as “binds more weakly”.
As for TCTAGAATGTCACTTGTTTTTTTT [SE m13], the binding result in data set [2] (first C to A reduces binding, label: 32P, single-stranded DNA, variant of SE WT (fine mapping)) was “binds more weakly”.
As for TCTAGACGGTCACTTGTTTTTTTT [SE m14], the binding result in data set [2] (setting [7]) is given as “binds more weakly”.
For TCTAGACTACCACTTGTTTTTTTT [SE m9], in data set [2] (setting [7]), the binding result is “binds more weakly”.
Regarding TCTAGACTATCACTTGTTTTTTTT [SE m15], the binding result in data set [2] (setting [7]) was “binds more weakly”.
Turning to TCTAGACTGACACTTGTTTTTTTT [SE m16], the binding result in data set [2] (setting [7]) is “binds more weakly”.
Regarding TCTAGACTGTCAAGTGTTTTTTTT [SE m11], the binding result in data set [2] (setting [7]) was “binds more weakly”.
As for TCTAGACTGTCACAACTTTTTTTTA [SE m5], the binding result in data set [2] (slight decrease, label: 32P, single-stranded DNA, variant of PR-10a SE coding strand WT) is given as “binds more weakly”; in data set [3] (setting [6]) it was “binds more weakly”.
TCTAGACTGTCACGTGTTTTTTTT [SE m20]: the binding result in data set [2] (setting [4]) is “binds”.
For the sequence TCTAGACTGTCACTGTTTTTTTTT [SE m12], the binding result in data set [2] (not affected, label: 32P, single-stranded DNA, variant of SE WT (fine mapping)) is recorded as “binds”.
On to “TCTAGACTGTCACTTGTTTTTTTT [SE WT (fine mapping)]”, for which the binding result in data set [2] (label: 32P, single-stranded DNA) is “binds”.
For the sequence “TCTAGACTGTCACTTGTTTTTTTTA (double strand) [PR-10a SE double-stranded]”, in data set [2] (label: 32P on non-coding strand, variant of PR-10a SE coding strand WT), the binding result is reported as “no binding”.
In the case of “TCTAGACTGTCACTTGTTTTTTTTA [PR-10a SE coding strand WT]”, the binding result in data set [2] (poly(dI-dC), 200 mM NaCl, Tris pH 7.5, EDTA, on ice, label: 32P, single-stranded DNA) was “binds”.
“TCTAGACTGTCACTTGTTTTTTTTA [PR-10a oligo (FIG. 9)]”: in data set [1], the binding result is given as “binds”.
Turning to TCTAGACTGTCGAGTGTTTTTTTTA [SE m4], the binding result in data set [2] (setting [5]) and in data set [3] (less affinity than WT) was “binds more weakly” in each case.
For the sequence TCTAGACTGTGACTTGTTTTTTTT [SE m17], in data set [2] (setting [7]), the binding result is “binds more weakly”.
Regarding TCTAGATCGAATTCCGCTCGACCGG [SE m1], in data set [2] (binding completely abolished, label: 32P, single-stranded DNA, variant of PR-10a SE coding strand WT), the binding result was “no binding”.
As to TCTATCCTGTCACTTGTTTTTTTT [SE m7], the binding result in data set [2] (setting [4]) was “binds”.
